# Laboratory results: patent publication US9999690B2, “Labeled compounds and methods of imaging, diagnosing cartilage disorders and diseases, and monitoring cartilage health using labeled and unlabeled compounds” (Perosphere Inc., priority 2013, dated 2018)
# Further values from the same series stand in other lists.
# Assay: Tissue distribution of radioactivity by Quantitative Whole-Body Autoradiography (QWBA), Group 4
# Format: in vivo
# Conditions: rat, single IV 2 mg/kg
# Protocol: A study was conducted to determine the pharmacokinetics, rates and routes of excretion with mass baseline and tissue distribution of radioactivity, after a single intravenous dose administration of formula XIII (also referred to as [^14C]DAP) was administered to the rats by tail vein intravenous injection at a
# The study was conducted on 19 male rats divided into 4 groups. The first group of 6 rats was used for blood collection (Group 1); the second group of 4 rats was used for urine, feces, cage rinses and wipes and carcasses collection (Group 2); the third group of 4 rats was used for expired air collection (Group 3); the fourth group of 5 rats was used for terminal blood/serum and tissue distribution by Quantitative Whole-Body Autoradiography (QWBA) (Group 4).
# For Group 4, formula XIII (QWBA was run at 1, 8, 12, 24 and 72 hours post dose. After terminal blood collection, each euthanized animal was frozen in a hexane/dry ice bath and embedded in a 2% carboxymethylcellulose matrix according to MPI Research SOP ADME-112. The embedded carcasses were sectioned according to MPI Research SOP ADME-113 on a Leica CM3600 Cyromacrotome set to maintain −10 to −30° C. At least four fortified quality control standards of known radioactive concentration were placed into the frozen block prior to sectioning and used for section thickness quality control. The quality control standards were sectioned under the same conditions as the specimen. The intrasection and intersection variation of collected sections were determined by analyzing the quality control standards. Section variation must be less than 20% for quantitative analysis. Sections that were approximately 40μm thick were taken in the sagittal plane. Appropriate sections selected at various levels of interest in the block were collected to encompass the following tissues, organs, and biological fluids, where possible: adrenal gland, bladder (urinary) and contents (urine), blood (cardiac), bone, bone marrow, brain, eye, fat (brown), fat (white), heart, kidney, large intestine/cecum and contents, liver, lung, muscle, pancreas, prostate, salivary glands, skin, small intestine and contents, spleen, stomach and contents, testes, thymus, thyroid, mesenteric lymph nodes, and epididymis. A set of sections were mounted, exposed to phosphor imaging screens and scanned using the Storm 860 image acquisition system according to MPI Research SOP ADME-112. Quantification, relative to the calibration standards, were performed by image densitometry using MCID™ image analysis software according to MPI Research SOP ADME-114. A standard curve was constructed from the integrated response (MDC/mm2) and the nominal concentrations of the [^14C]Glucose calibration standards. Relative error should be less than 0.5 for each point on the curve. The concentrations of radioactivity were expressed as μCi/g and were converted to μg or ng-equivalents of DAP per gram of sample (μg- or ng-eq/g) using the specific activity of administered [^14C]DAP dose formulation. A lower limit of quantification (LLOQ) was applied to the data. The LLOQ was determined using the radioactive concentration of the lowest calibration standard used to generate a calibration curve divided by the specific activity of the dose formulation (μCi/ug). Artifacts, such as those produced by dislodged contents of the alimentary canal, were excluded from analysis during image analysis.
smiles,measurement,setting,value
[2H]C1([2H])N(CCCNC(=O)[C@@H](N)CCCNC(=N)N)C([2H])([2H])C([2H])([2H])N(CCCNC(=O)[C@@H](N)CCCNC(=N)N)C1([2H])[2H] [formula XIII],Concentration of Radioactivity in Adrenal gland,1 Hour,1747 ng Equivalents [^14C]DAP/g
same,Concentration of Radioactivity in Blood,1 Hour,1794 ng Equivalents [^14C]DAP/g
same,Concentration of Radioactivity in Bone,1 Hour,445 ng Equivalents [^14C]DAP/g
same,Concentration of Radioactivity in Bulbourethral gland,1 Hour,2841 ng Equivalents [^14C]DAP/g
same,Concentration of Radioactivity in Cecum,1 Hour,3182 ng Equivalents [^14C]DAP/g
same,Concentration of Radioactivity in Cecum contents,1 Hour,543 ng Equivalents [^14C]DAP/g
same,Concentration of Radioactivity in Cerebellum,1 Hour,223 ng Equivalents [^14C]DAP/g
same,Concentration of Radioactivity in Cerebrum,1 Hour,252 ng Equivalents [^14C]DAP/g
same,Concentration of Radioactivity in Diaphragm,1 Hour,1782 ng Equivalents [^14C]DAP/g
same,Concentration of Radioactivity in Epididymis,1 Hour,2539 ng Equivalents [^14C]DAP/g
same,Concentration of Radioactivity in Esophageal contents,1 Hour,498 ng Equivalents [^14C]DAP/g
same,Concentration of Radioactivity in Esophagus,1 Hour,2248 ng Equivalents [^14C]DAP/g
same,Concentration of Radioactivity in Exorbital gland,1 Hour,3586 ng Equivalents [^14C]DAP/g
same,Concentration of Radioactivity in Eye (lens),1 Hour,325 ng Equivalents [^14C]DAP/g
same,Concentration of Radioactivity in Fat (brown),1 Hour,2750 ng Equivalents [^14C]DAP/g
same,Concentration of Radioactivity in Fat (white),1 Hour,1144 ng Equivalents [^14C]DAP/g
same,Concentration of Radioactivity in Harderian gland,1 Hour,1506 ng Equivalents [^14C]DAP/g
same,Concentration of Radioactivity in Intraorbital gland,1 Hour,3349 ng Equivalents [^14C]DAP/g
same,Concentration of Radioactivity in Large intestine,1 Hour,4060 ng Equivalents [^14C]DAP/g
same,Concentration of Radioactivity in Lung,1 Hour,3486 ng Equivalents [^14C]DAP/g
same,Concentration of Radioactivity in Lymph nodes,1 Hour,3855 ng Equivalents [^14C]DAP/g
same,Concentration of Radioactivity in Medulla,1 Hour,188 ng Equivalents [^14C]DAP/g
same,Concentration of Radioactivity in Muscle,1 Hour,717 ng Equivalents [^14C]DAP/g
same,Concentration of Radioactivity in Myocardium,1 Hour,1978 ng Equivalents [^14C]DAP/g
same,Concentration of Radioactivity in Nasal turbinates,1 Hour,3326 ng Equivalents [^14C]DAP/g
same,Concentration of Radioactivity in Olfactory lobe,1 Hour,609 ng Equivalents [^14C]DAP/g
same,Concentration of Radioactivity in Pancreas,1 Hour,2923 ng Equivalents [^14C]DAP/g
same,Concentration of Radioactivity in Pituitary gland,1 Hour,3786 ng Equivalents [^14C]DAP/g
same,Concentration of Radioactivity in Preputial gland,1 Hour,3702 ng Equivalents [^14C]DAP/g
same,Concentration of Radioactivity in Prostate gland,1 Hour,4652 ng Equivalents [^14C]DAP/g
same,Concentration of Radioactivity in Salivary gland,1 Hour,4047 ng Equivalents [^14C]DAP/g
same,Concentration of Radioactivity in Seminal vesicles,1 Hour,331 ng Equivalents [^14C]DAP/g
same,Concentration of Radioactivity in Skin,1 Hour,3318 ng Equivalents [^14C]DAP/g
same,Concentration of Radioactivity in Small intestinal contents,1 Hour,3191 ng Equivalents [^14C]DAP/g
same,Concentration of Radioactivity in Spinal cord,1 Hour,213 ng Equivalents [^14C]DAP/g
same,Concentration of Radioactivity in Spleen,1 Hour,3699 ng Equivalents [^14C]DAP/g
same,Concentration of Radioactivity in Stomach,1 Hour,4422 ng Equivalents [^14C]DAP/g
same,Concentration of Radioactivity in Stomach contents,1 Hour,196 ng Equivalents [^14C]DAP/g
same,Concentration of Radioactivity in Testes,1 Hour,895 ng Equivalents [^14C]DAP/g
same,Concentration of Radioactivity in Thyroid gland,1 Hour,2805 ng Equivalents [^14C]DAP/g
same,Concentration of Radioactivity in Uveal tract,1 Hour,2565 ng Equivalents [^14C]DAP/g
same,Concentration of Radioactivity in Vitreous humor,1 Hour,494 ng Equivalents [^14C]DAP/g
same,Concentration of Radioactivity in Adrenal gland,8 Hours,715 ng Equivalents [^14C]DAP/g
same,Concentration of Radioactivity in Blood,8 Hours,328 ng Equivalents [^14C]DAP/g
same,Concentration of Radioactivity in Bone,8 Hours,250 ng Equivalents [^14C]DAP/g
same,Concentration of Radioactivity in Bulbourethral gland,8 Hours,1086 ng Equivalents [^14C]DAP/g
same,Concentration of Radioactivity in Cecum,8 Hours,1868 ng Equivalents [^14C]DAP/g
same,Concentration of Radioactivity in Cecum contents,8 Hours,1134 ng Equivalents [^14C]DAP/g
same,Concentration of Radioactivity in Cerebellum,8 Hours,180 ng Equivalents [^14C]DAP/g
same,Concentration of Radioactivity in Cerebrum,8 Hours,228 ng Equivalents [^14C]DAP/g
same,Concentration of Radioactivity in Diaphragm,8 Hours,582 ng Equivalents [^14C]DAP/g
same,Concentration of Radioactivity in Epididymis,8 Hours,1041 ng Equivalents [^14C]DAP/g
same,Concentration of Radioactivity in Esophageal contents,8 Hours,434 ng Equivalents [^14C]DAP/g
same,Concentration of Radioactivity in Esophagus,8 Hours,1842 ng Equivalents [^14C]DAP/g
same,Concentration of Radioactivity in Exorbital gland,8 Hours,1415 ng Equivalents [^14C]DAP/g
same,Concentration of Radioactivity in Eye (lens),8 Hours,183 ng Equivalents [^14C]DAP/g
same,Concentration of Radioactivity in Fat (brown),8 Hours,1097 ng Equivalents [^14C]DAP/g
same,Concentration of Radioactivity in Fat (white),8 Hours,485 ng Equivalents [^14C]DAP/g
same,Concentration of Radioactivity in Harderian gland,8 Hours,846 ng Equivalents [^14C]DAP/g
same,Concentration of Radioactivity in Intraorbital gland,8 Hours,1660 ng Equivalents [^14C]DAP/g
same,Concentration of Radioactivity in Large intestine,8 Hours,2237 ng Equivalents [^14C]DAP/g
same,Concentration of Radioactivity in Lung,8 Hours,1635 ng Equivalents [^14C]DAP/g
same,Concentration of Radioactivity in Lymph nodes,8 Hours,2192 ng Equivalents [^14C]DAP/g
same,Concentration of Radioactivity in Medulla,8 Hours,204 ng Equivalents [^14C]DAP/g
same,Concentration of Radioactivity in Muscle,8 Hours,405 ng Equivalents [^14C]DAP/g
same,Concentration of Radioactivity in Myocardium,8 Hours,832 ng Equivalents [^14C]DAP/g
same,Concentration of Radioactivity in Nasal turbinates,8 Hours,3117 ng Equivalents [^14C]DAP/g
same,Concentration of Radioactivity in Olfactory lobe,8 Hours,386 ng Equivalents [^14C]DAP/g
same,Concentration of Radioactivity in Pancreas,8 Hours,2819 ng Equivalents [^14C]DAP/g
same,Concentration of Radioactivity in Pituitary gland,8 Hours,1802 ng Equivalents [^14C]DAP/g
same,Concentration of Radioactivity in Prostate gland,8 Hours,8806 ng Equivalents [^14C]DAP/g
same,Concentration of Radioactivity in Salivary gland,8 Hours,2060 ng Equivalents [^14C]DAP/g
same,Concentration of Radioactivity in Seminal vesicles,8 Hours,274 ng Equivalents [^14C]DAP/g
same,Concentration of Radioactivity in Skin,8 Hours,1893 ng Equivalents [^14C]DAP/g
same,Concentration of Radioactivity in Small intestinal contents,8 Hours,1019 ng Equivalents [^14C]DAP/g
same,Concentration of Radioactivity in Spinal cord,8 Hours,187 ng Equivalents [^14C]DAP/g
same,Concentration of Radioactivity in Spleen,8 Hours,1896 ng Equivalents [^14C]DAP/g
same,Concentration of Radioactivity in Stomach,8 Hours,1348 ng Equivalents [^14C]DAP/g
same,Concentration of Radioactivity in Stomach contents,8 Hours,368 ng Equivalents [^14C]DAP/g
same,Concentration of Radioactivity in Testes,8 Hours,444 ng Equivalents [^14C]DAP/g
same,Concentration of Radioactivity in Thyroid gland,8 Hours,2049 ng Equivalents [^14C]DAP/g
same,Concentration of Radioactivity in Vitreous humor,8 Hours,322 ng Equivalents [^14C]DAP/g
same,Concentration of Radioactivity in Adrenal gland,12 Hours,755 ng Equivalents [^14C]DAP/g
same,Concentration of Radioactivity in Blood,12 Hours,212 ng Equivalents [^14C]DAP/g
same,Concentration of Radioactivity in Bone,12 Hours,356 ng Equivalents [^14C]DAP/g
same,Concentration of Radioactivity in Bulbourethral gland,12 Hours,3753 ng Equivalents [^14C]DAP/g
same,Concentration of Radioactivity in Cecum,12 Hours,2648 ng Equivalents [^14C]DAP/g
same,Concentration of Radioactivity in Cecum contents,12 Hours,2391 ng Equivalents [^14C]DAP/g
same,Concentration of Radioactivity in Diaphragm,12 Hours,603 ng Equivalents [^14C]DAP/g
same,Concentration of Radioactivity in Epididymis,12 Hours,592 ng Equivalents [^14C]DAP/g
same,Concentration of Radioactivity in Esophageal contents,12 Hours,185 ng Equivalents [^14C]DAP/g
